Measurements reported in patent US8648081B2 (Eli Lilly and Company, priority 2011, dated 2014).
Some entries share one result that the patent states for a list of compounds.

Test system: nymphal stage American dog ticks (Dermacentor variabilis)
Experiment: In Vivo Rodent Acaricide Test (RAT)
Details: dose of not more than 25 mpk, oral gavage, Sprague-Dawley rats, ticks counted 48 hours post-treatment

Row | SMILES | percent efficacy (% reduction in live tick counts)
1 | N#CCNC(=O)CNC(=O)c1sc(C2=NOC(c3sc(Cl)c(Cl)c3Cl)(C(F)(F)F)C2)c2c1CCCC2 (stereo not drawn) [Example 96, N-(2-(cyanomethylamino)-2-oxoethyl)-3-(5-(3,4,5-trichlorothiophen-2-yl)-5-(trifluoromethyl)-4,5-dihydroisoxazol-3-yl)-4,5,6,7-tetrahydro-benzo[c]thiophene-1-carboxamide] | ≥ 50%
2 | FC(F)(F)C1(c2cc(Cl)cc(Cl)c2)CC(c2nc3ccccc3s2)=NO1 (stereo not drawn) [Example 234, 3-(benzo[d]thiazol-2-yl)-5-(3,5-di-chlorophenyl)-5-(trifluoromethyl)-4,5-dihydroisoxazole] | ≥ 50%
3 | Cc1c(C2=NOC(c3cc(Cl)cc(Cl)c3)(C(F)(F)F)C2)sc2ccccc12 (stereo not drawn) [Example 235, 5-(3,5-dichloro-phenyl)-3-(3-methylbenzo[b]thiophen-2-yl)-5-(trifluoro-methyl)-4,5-dihydro-isoxazole] | ≥ 50%
4 | O=C(CNC(=O)c1cnc2sc(C3=NOC(c4cc(Cl)cc(Cl)c4)(C(F)(F)F)C3)cc2c1)NCC(F)(F)F (stereo not drawn) [Example 240, 2-(5-(3,5-dichlorophenyl)-5-(trifluoromethyl)-4,5-dihydroisoxazol-3-yl)-N-(2-oxo-2-(2,2,2-trifluoroethylamino)ethyl)thieno[2,3-b]pyridine-5-carboxamide] | ≥ 50%
5 | O=C(N[C@@H]1CCNC1=O)c1cnc2sc(C3=NOC(c4cc(Cl)cc(Cl)c4)(C(F)(F)F)C3)cc2c1 (stereo partly drawn) [Example 241, 2-(5-(3,5-dichloro-phenyl)-5-(trifluoro-methyl)-4,5-dihydro-isoxazol-3-yl)-N-((R)-2-oxopyrrolidin-3-yl)thieno[2,3-b] pyridine-5-carboxamide] | ≥ 50%
6 | O=C(CNC(=O)c1sc(C2=NO[C@@](c3cc(Cl)c(F)c(Cl)c3)(C(F)(F)F)C2)c2c1CCC2)NCC(F)(F)F [Example 243, (S)-3-(5-(3,5-dichloro-4-fluorophenyl)-5-(trifluoromethyl)-4,5-dihydroisoxazol-3-yl)-N-(2-oxo-2-(2,2,2-trifluoroethylamino)ethyl)-5,6-dihydro-4H-cyclopenta[c]thiophene-1-carboxamide] | ≥ 50%
7 | O=C(CNC(=O)c1sc(C2=NOC(c3cc(Cl)c(F)c(Cl)c3)(C(F)(F)F)C2)c2c1CCC2)NCCF (stereo not drawn) [Example 246, 3-[5-(3,5-Dichloro-4-fluoro-phenyl)-5-trifluoromethyl-4,5-dihydro-isoxazol-3-yl]-5,6-dihydro-4H-cyclopenta[c]thiophene-1-carboxylic acid [(2-fluoro-ethylcarbamoyl)-methyl]-amide] | ≥ 50%
8 | O=C(CNC(=O)c1sc(C2=NO[C@@](c3cc(Cl)c(F)c(Cl)c3)(C(F)(F)F)C2)c2c1CCC2)NCCF [Example 247, (S)-3-[5-(3,5-Dichloro-4-fluoro-phenyl)-5-trifluoromethyl-4,5-dihydro-isoxazol-3-yl]-5,6-dihydro-4H-cyclopenta[c]thiophene-1-carboxylic acid [(2-fluoro-ethylcarbamoyl)-methyl]-amide] | ≥ 50%
9 | C#CCNC(=O)CNC(=O)c1sc(C2=NO[C@@](c3cc(Cl)c(F)c(Cl)c3)(C(F)(F)F)C2)c2c1CCC2 [Example 249, (S)-3-(5-(3,5-dichloro-4-fluorophenyl)-5-(trifluoromethyl)-4,5-dihydroisoxazol-3-yl)-N-(2-oxo-2-(prop-2-ynylamino)ethyl)-5,6-dihydro-4H-cyclopenta[c]thiophene-1-carboxamide] | ≥ 50%
